Experimental data: PubChem BioAssay AID1053208 (Peter MacCallum Cancer Centre, 2014)

- Aim: 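Genes whose silencing cuts survival of bone tumour cells only with doxorubicin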 (primary screen)
- Cells: mouse osteosarcoma cells, early-passage culture from an engineered mouse model of fibroblastic bone tumour
- Knock-down reagent: siRNA pool against mouse genes, 40 nM
- Timing: about 120 h (48 h before drug, then 72 h with drug)
- Conditions: doxorubicin 100 nM for 72 h, roughly 30-40% inhibitory dose
- Measured: 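Viability read as ATP luminescence after 72 h of 100 nM doxorubicin or none, duplicate wells averaged, scaled to non-targeting siRNA, then expressed as robust z-scores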
- Direction: viability z-score with doxorubicin and doxorubicin viability vs non-targeting: higher = more viable cells under doxorubicin; viability z-score without drug: higher = more viable cells with knock-down alone; z-score of drug to no-drug ratio: higher = less drug sensitisation by knock-down
- Hit rule: 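Called active if knock-down leaves viability unchanged without drug (z within -2 to 2) but lowers it with doxorubicin (z at or under -2)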
This is one part, drawn at random, of about 17,000 deposited reagents. Of all reagents, 788 (4.7%) got an active call. 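Calls rest on z-score classes alone; an extra cut-off of viability at most 70% of control was not applied to them.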 A reagent listed more than once was tested more than once; the source does not tell the runs apart. No sequences are given here.

gene knocked down,combined z-score class,viability z-score with doxorubicin,viability z-score without drug,z-score of drug to no-drug ratio,doxorubicin viability vs non-targeting,outcome
Cd99l2 (GeneID 171486),no change with or without drug,-0.67,-1.35,0.34,0.88,inactive
Bpifa1 (GeneID 18843),low cell count with and without drug,-2.25,-3.2,-0.11,0.74,inactive
Tent2 (GeneID 100715),no change with or without drug,0.22,0.51,0,0.96,inactive
Or7g29 (GeneID 258518),no change with or without drug,-0.45,0.17,-0.45,0.9,inactive
Col12a1 (GeneID 12816),no change with or without drug,-1.46,-0.51,-1.12,0.81,inactive
Adig (GeneID 246747),no change with or without drug,0.34,0.51,0.11,0.97,inactive
Cimap1a (GeneID 69287),no change with or without drug,0.9,0.84,0.45,1.02,inactive
Zcchc18 (GeneID 66995),no change with or without drug,0.9,-0.51,1.46,1.02,inactive
Met (GeneID 17295),no change with or without drug,-0.22,-1.85,1.35,0.92,inactive
Vsig1 (GeneID 78789),low cell count with doxorubicin only,-3.15,1.52,-3.93,0.66,active
Tspan2 (GeneID 70747),low cell count with doxorubicin only,-2.25,-1.01,-1.69,0.74,active
Sfxn1 (GeneID 14057),no change with or without drug,-0.67,-0.51,-0.22,0.88,inactive
Anks3 (GeneID 72615),no change with or without drug,0.67,0.17,0.67,1,inactive
Chrnb3 (GeneID 108043),no change with or without drug,-1.46,-0.17,-1.35,0.81,inactive
Ubr3 (GeneID 68795),no change with or without drug,-0.9,0.67,-1.24,0.86,inactive
Rce1 (GeneID 19671),no change with or without drug,-0.34,0.34,-0.45,0.91,inactive
Or8g36 (GeneID 258740),low cell count with doxorubicin only,-2.25,-0.84,-1.8,0.74,active
Pik3cb (GeneID 74769),no change with or without drug,1.01,0.17,1.01,1.03,inactive
Pik3cb (GeneID 74769),high cell count with doxorubicin only,2.14,-0.17,2.47,1.13,inactive
Ccl19 (GeneID 24047),no change with or without drug,0.22,0.17,0.22,0.96,inactive
Cabp2 (GeneID 29866),no change with or without drug,0,1.35,-0.79,0.94,inactive
Synj2bp (GeneID 24071),no change with or without drug,-1.12,-0.17,-1.01,0.84,inactive
Dnah8 (GeneID 13417),no change with or without drug,-0.45,1.52,-1.24,0.9,inactive
Sectm1a (GeneID 209588),no change with or without drug,-0.45,-0.51,0,0.9,inactive
Polr2g (GeneID 67710),no change with or without drug,1.12,0.34,1.01,1.04,inactive
Nek3 (GeneID 23954),no change with or without drug,0.45,0.67,0.11,0.98,inactive
Ppp1r11 (GeneID 76497),no change with or without drug,0.56,-0.84,1.35,0.99,inactive
Syt2 (GeneID 20980),no change with or without drug,-0.22,-0.84,0.45,0.92,inactive
Pam (GeneID 18484),no change with or without drug,0.45,0,0.56,0.98,inactive
Gbp2b (GeneID 14468),no change with or without drug,0.22,-0.51,0.67,0.96,inactive
Wnt2b (GeneID 22414),no change with or without drug,1.01,1.35,0.22,1.03,inactive
Scn5a (GeneID 20271),no change with or without drug,0.22,0.51,0,0.96,inactive

3 entries from above, showing only “z-score of drug to no-drug ratio”.
Cd99l2 (GeneID 171486): 0.34
Bpifa1 (GeneID 18843): -0.11
Tent2 (GeneID 100715): 0

The results go on.
gene knocked down,combined z-score class,viability z-score with doxorubicin,viability z-score without drug,z-score of drug to no-drug ratio,doxorubicin viability vs non-targeting,outcome
Naglu (GeneID 27419),no change with or without drug,1.12,0.67,0.79,1.04,inactive
Srpk1 (GeneID 20815),no change with or without drug,0.45,0.67,0.11,0.98,inactive
Zfa-ps (GeneID 22639),high cell count without drug only,0.22,2.19,-1.01,0.96,inactive
Nsdhl (GeneID 18194),no change with or without drug,1.12,-0.67,1.8,1.04,inactive
Zbtb26 (GeneID 320633),no change with or without drug,-0.22,0.84,-0.67,0.92,inactive
Or5b120 (GeneID 258691),no change with or without drug,1.35,0.17,1.35,1.06,inactive
Pask (GeneID 269224),no change with or without drug,1.8,-0.34,2.25,1.1,inactive
Rragc (GeneID 54170),no change with or without drug,-1.35,0,-1.35,0.82,inactive
Zfp934 (GeneID 77117),no change with or without drug,-0.22,-0.84,0.45,0.92,inactive
Dnaaf11 (GeneID 54562),low cell count without drug only,-1.8,-2.19,-0.34,0.78,inactive
Mt2 (GeneID 17750),no change with or without drug,-0.34,-1.18,0.56,0.91,inactive
Parp8 (GeneID 52552),no change with or without drug,1.12,1.52,0.22,1.04,inactive
Tas2r135 (GeneID 387512),no change with or without drug,-0.22,-0.51,0.22,0.92,inactive
Cd40 (GeneID 21939),no change with or without drug,0.9,-0.17,1.24,1.02,inactive
Nrap (GeneID 18175),no change with or without drug,-1.24,-0.51,-0.9,0.83,inactive
Rnf138 (GeneID 56515),no change with or without drug,-0.9,-1.01,-0.11,0.86,inactive
Itpa (GeneID 16434),no change with or without drug,-0.11,0.17,-0.11,0.93,inactive
Gzmm (GeneID 16904),no change with or without drug,-0.67,-0.17,-0.45,0.88,inactive
Nat3 (GeneID 17962),low cell count with doxorubicin only,-2.25,-0.84,-1.8,0.74,active
Zfp422 (GeneID 67255),no change with or without drug,1.35,1.52,0.45,1.06,inactive
Slc25a24 (GeneID 229731),no change with or without drug,-0.45,-0.17,-0.22,0.9,inactive
Anxa11 (GeneID 11744),no change with or without drug,-1.12,0.17,-1.12,0.84,inactive
Eif3f (GeneID 66085),low cell count with and without drug,-3.26,-2.19,-2.14,0.65,inactive
Or12j3 (GeneID 258512),no change with or without drug,-0.45,0.34,-0.56,0.9,inactive
Flad1 (GeneID 319945),no change with or without drug,-0.45,-0.84,0.22,0.9,inactive
Or8s2 (GeneID 259038),no change with or without drug,-0.22,-0.34,0.11,0.92,inactive
4933409G03Rik (GeneID 227998),no change with or without drug,0.9,0.67,0.56,1.02,inactive
Or10ag60 (GeneID 258835),no change with or without drug,0.45,0,0.56,0.98,inactive
Zfp110 (GeneID 65020),no change with or without drug,-0.67,-1.18,0.22,0.88,inactive
Clasp2 (GeneID 76499),no change with or without drug,0.9,-0.17,1.24,1.02,inactive
Pfkfb3 (GeneID 170768),no change with or without drug,1.35,1.35,0.56,1.06,inactive
